Experimental findings from the supplement of paper PMC8728848 are described below.

This is one part of the list.

Test in all cases: glycan array binding signal (z-score within array); higher = stronger binding
Common to all, as to details: glycan notation: IUPAC condensed, linker removed

Assay [1] concerns the target Gal(b1-4)GlcNAc(b1-2)Man(a1-3)[Gal(b1-4)GlcNAc(b1-2)Man(a1-6)]Man(b1-4)GlcNAc(b1-4)[Fuc(a1-6)]GlcNAc. In outline:
(§1)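 Glycan array data came from 3228 arrays in the Consortium for Functional Glycomics database, and only arrays with an available protein sequence were kept. Glycan names were put into IUPAC-condensed notation, and columns mapping to the same glycan were averaged. The binding signal is a within-array Z-score, averaged across arrays of one protein sequence run at different concentrations or buffers and across linkers. A negative Z-score can be read as non-binding.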

The target of assay [2] is Gal(b1-4)GlcNAc(b1-2)Man(a1-3)[Gal(b1-4)GlcNAc(b1-2)Man(a1-6)][Gal(b1-4)GlcNAc(b1-4)]Man(b1-4)GlcNAc(b1-4)[Fuc(a1-6)]GlcNAc. In outline:
as §1

The target of assay [3] is Gal(b1-4)GlcNAc(b1-2)Man(a1-3)[Gal(b1-4)GlcNAc(b1-2)Man(a1-6)][GlcNAc(b1-4)]Man(b1-4)GlcNAc(b1-4)[Fuc(a1-6)]GlcNAc. In a few lines: as §1
Assay [4] concerns the target Gal(b1-4)GlcNAc(b1-2)Man(a1-3)[GlcNAc(b1-2)Man(a1-6)]Man(b1-4)GlcNAc(b1-4)GlcNAc. In a few lines: as §1
The target of assay [5] is Gal(b1-4)GlcNAc(b1-2)Man(a1-3)[GlcNAc(b1-4)][Gal(b1-4)GlcNAc(b1-2)Man(a1-6)]Man(b1-4)GlcNAc(b1-4)GlcNAc. In a few lines: as §1
The target of assay [6] is Gal(b1-4)GlcNAc(b1-2)Man(a1-3)[Man(a1-6)]Man(b1-4)GlcNAc(b1-4)GlcNAc. In a few lines: as §1
The target of assay [7] is Gal(b1-4)GlcNAc(b1-2)Man(a1-6)Man(b1-4)GlcNAc(b1-4)GlcNAc. In a few lines: as §1
In assay [8] the target is Gal(b1-4)GlcNAc(b1-2)Man(a1-6)[GlcNAc(b1-2)Man(a1-3)]Man(b1-4)GlcNAc(b1-4)GlcNAc. In outline: as §1
Assay [9] has as its target Gal(b1-4)GlcNAc(b1-2)Man(a1-6)[Man(a1-3)]Man(b1-4)GlcNAc(b1-4)GlcNAc. In outline:
as §1

Assay [10] concerns the target Gal(b1-4)GlcNAc(b1-2)[Gal(b1-4)GlcNAc(b1-4)]Man(a1-3)[Gal(b1-4)GlcNAc(b1-2)Man(a1-6)]Man(b1-4)GlcNAc(b1-4)GlcNAc. In a few lines:
as §1

For assay [11], the target named is Gal(b1-4)GlcNAc(b1-2)[Gal(b1-4)GlcNAc(b1-4)]Man(a1-3)[Gal(b1-4)GlcNAc(b1-2)[Gal(b1-4)GlcNAc(b1-6)]Man(a1-6)]Man(b1-4)GlcNAc(b1-4)GlcNAc. In a few lines: as §1
The target in assay [12] is Gal(b1-4)GlcNAc(b1-2)[Gal(b1-4)GlcNAc(b1-4)]Man(a1-3)[GlcNAc(b1-4)][Gal(b1-4)GlcNAc(b1-2)Man(a1-6)]Man(b1-4)GlcNAc(b1-4)GlcNAc. In outline: as §1
Assay [13] concerns the target Gal(b1-4)GlcNAc(b1-2)[Gal(b1-4)GlcNAc(b1-4)]Man(a1-3)[GlcNAc(b1-4)][Gal(b1-4)GlcNAc(b1-2)[Gal(b1-4)GlcNAc(b1-6)]Man(a1-6)]Man(b1-4)GlcNAc(b1-4)GlcNAc. In outline:
as §1

Assay [14] deals with Gal(b1-4)GlcNAc(b1-2)[Gal(b1-4)GlcNAc(b1-6)]Man(a1-6)[Gal(b1-4)GlcNAc(b1-2)Man(a1-3)]Man(b1-4)GlcNAc(b1-4)GlcNAc. In outline:
as §1

The target in assay [15] is Gal(b1-4)GlcNAc(b1-2)[Gal(b1-4)GlcNAc(b1-6)]Man(a1-6)[Gal(b1-4)GlcNAc(b1-2)Man(a1-3)]Man(b1-4)GlcNAc(b1-4)[Fuc(a1-6)]GlcNAc. In a few lines: as §1
Assay [16] addresses Gal(b1-4)GlcNAc(b1-2)[Gal(b1-4)GlcNAc(b1-6)]Man(a1-6)[GlcNAc(b1-4)][Gal(b1-4)GlcNAc(b1-2)Man(a1-3)]Man(b1-4)GlcNAc(b1-4)GlcNAc. In a few lines:
as §1

Assay [17] addresses Gal(b1-4)GlcNAc(b1-2)[Gal(b1-4)GlcNAc(b1-6)]Man(a1-6)[GlcNAc(b1-4)][Gal(b1-4)GlcNAc(b1-2)[Gal(b1-4)GlcNAc(b1-4)]Man(a1-3)]Man(b1-4)GlcNAc(b1-4)[Fuc(a1-6)]GlcNAc. In a few lines: as §1
For assay [18], the target named is Gal(b1-4)GlcNAc(b1-3)Gal(b1-3)GalNAc. In outline: as §1
The target of assay [19] is Gal(b1-4)GlcNAc(b1-3)Gal(b1-3)GlcNAc. In a few lines: as §1

B1: PX14379D-pdi-530-26-530 (Parabacteroides distasonis) (protein)
chain: DETVYDKLPADDFGQSTAELNALIGNSHNTMKKFWTEYMHLSECSGSMAVTPTRRGGDWYDGGQYREIYMHTWTSQTSRVKSAWKAATEAIGTCNEAIRKLQNSEILTEEEKAQDVADLRGVRAFWIYVMMDYWGNIPLLTEFHPTDKVFPGNSSRQEVFDWLIQEVEEIKDICPPATTENYGSFTQGAAYSLLAKLYLNAEAWGVTFSGNAYQKVIDNCDKVMAMGYILEPNWKDNFSVTNENSKEAILAATFSSSDTGNDGNVKNELHNNTLHYKDYLSLGITASGTWNGICAQPEYVRLFDEEDARLDGTFLTGLMIDKSTGKPIMTDHNNELNHTIDVNMIPGMEYDGTNWSAVEQHDGARCFKWEFASDLTSSMGNDFHIFRLADIYLMKAEALLRGGGSVSEATALVNTIRERGYGNSDHNYATVTLKEVQLERRLELAWEVYSRQDDIRFGCFTTGMWPQSNCERKADDYLKLLPVSQDAWQVNPNLKQNPGYAAFSK
For the molecule B1, the “glycan array binding signal (z-score)” value was -0.591 in assay [1]; -0.365 in assay [2]; -0.865 in assay [3]; 0.214 in [4]; -0.811 in assay [5]; -0.319 in [6]. Also, the “glycan array binding signal (z-score)” value in [7] is 0.173; in assay [8], -0.083; in assay [9] it was -0.735; in [10] it was 0.028; in assay [11], -1.27; in assay [12], 0.047. For the same molecule, the “glycan array binding signal (z-score)” value was -0.002 in assay [13]; 0.197 in assay [14]; 0.548 in [15]; 0.184 in assay [16]; -0.675 in assay [17]; -0.744 in assay [18]. Besides, the “glycan array binding signal (z-score)” value in [19] is -1.08.
